According to paper PMC11571207 (Journal of Medicinal Chemistry, 2024):
End groups of sequences in plain letters are not given here. HELM strings list residues between dots; [ac] is acetyl, [am] amide, other brackets name non-standard units.

Assay: general procedure: Fmoc solid-phase peptide synthesis; Rink Amide AM resin
Details: whole synthesis

**Q.** What does the source list for “PEPTIDE1{V.D.K.P.P.Y.L.P.R.P.R.P.P.R.R.I.Y.N.R.[am]}$$$$V2.0”?
**A.** isolated mass (scale 357 mg, 0.29 mmol/g): 111 mg; isolated yield (scale 357 mg, 0.29 mmol/g): 34%

**Q.** With “PEPTIDE1{V.D.K.P.P.Y.L.P.R.P.R.P.P.R.[dR].I.Y.N.[dR].[am]}$$$$V2.0” as the substance, how does the isolated mass (scale 300 mg, 0.25 mmol/g) read?
**A.** The isolated mass was 18 mg.

**Q.** What about the isolated yield (scale 300 mg, 0.25 mmol/g) of the same substance?
**A.** The isolated yield was 8%.

**Q.** For “PEPTIDE1{V.D.K.P.P.Y.L.P.R.P.R.P.P.R.[dR].[dI].[dY].[dN].[dR].[am]}$$$$V2.0”, which isolated mass (scale 298 mg, 0.29 mmol/g) is on record?
**A.** Its isolated mass is 84 mg.

**Q.** What about the isolated yield (scale 298 mg, 0.29 mmol/g) of the same substance?
**A.** The isolated yield was 31%.

**Q.** Which results are given for “PEPTIDE1{V.D.K.P.P.Y.L.P.R.P.R.[dP].P.R.R.I.Y.N.R.[am]}$$$$V2.0”?
**A.** isolated mass (scale 300 mg, 0.25 mmol/g): 13 mg; isolated yield (scale 300 mg, 0.25 mmol/g): 6%

**Q.** With “PEPTIDE1{V.D.K.P.P.Y.L.P.R.P.R.[dP].[dP].[dR].[dR].[dI].[dY].[dN].[dR].[am]}$$$$V2.0” as the substance, how does the isolated mass (scale 300 mg, 0.25 mmol/g) read?
**A.** Its isolated mass is 7.4 mg.

**Q.** And the isolated yield (scale 300 mg, 0.25 mmol/g)?
**A.** The isolated yield was 3%.

**Q.** What does the source list for “PEPTIDE1{V.D.K.P.P.Y.L.P.R.P.[dR].P.P.R.R.I.Y.N.R.[am]}$$$$V2.0”?
**A.** isolated mass (scale 300 mg, 0.25 mmol/g): 50.6 mg; isolated yield (scale 300 mg, 0.25 mmol/g): 22%

**Q.** For “PEPTIDE1{V.D.K.P.P.Y.L.P.R.P.[dR].[dP].[dP].[dR].[dR].[dI].[dY].[dN].[dR].[am]}$$$$V2.0”, which isolated mass (scale 300 mg, 0.25 mmol/g) is on record?
**A.** Its isolated mass is 7.3 mg.

**Q.** What about the isolated yield (scale 300 mg, 0.25 mmol/g) of the same substance?
**A.** Its isolated yield is 3%.

**Q.** For “PEPTIDE1{V.D.K.P.P.Y.L.P.R.[dP].R.P.P.R.R.I.Y.N.R.[am]}$$$$V2.0”, which isolated mass (scale 300 mg, 0.25 mmol/g) is on record?
**A.** Its isolated mass is 40.7 mg.

**Q.** And the isolated yield (scale 300 mg, 0.25 mmol/g)?
**A.** Its isolated yield is 18%.

**Q.** Which results are given for “PEPTIDE1{V.D.K.P.P.Y.L.P.[dR].P.R.P.P.R.R.I.Y.N.R.[am]}$$$$V2.0”?
**A.** isolated mass (scale 300 mg, 0.29 mmol/g): 7.6 mg; isolated yield (scale 300 mg, 0.29 mmol/g): 3%

**Q.** Which results are given for “PEPTIDE1{V.D.K.P.P.Y.L.[dP].R.P.R.P.P.R.R.I.Y.N.R.[am]}$$$$V2.0”?
**A.** isolated mass (scale 305 mg, 0.29 mmol/g): 99 mg; isolated yield (scale 305 mg, 0.29 mmol/g): 35%

**Q.** What does the source list for “PEPTIDE1{V.D.K.P.P.Y.[dL].P.R.P.R.P.P.R.R.I.Y.N.R.[am]}$$$$V2.0”?
**A.** isolated mass (scale 326 mg, 0.29 mmol/g): 110 mg; isolated yield (scale 326 mg, 0.29 mmol/g): 37%

**Q.** Which results are given for “PEPTIDE1{V.D.K.P.P.[dY].L.P.R.P.R.P.P.R.R.I.Y.N.R.[am]}$$$$V2.0”?
**A.** isolated mass (scale 329 mg, 0.29 mmol/g): 130 mg; isolated yield (scale 329 mg, 0.29 mmol/g): 43%

**Q.** Which results are given for “PEPTIDE1{V.D.K.P.[dP].Y.L.P.R.P.R.P.P.R.R.I.Y.N.R.[am]}$$$$V2.0”?
**A.** isolated mass (scale 315 mg, 0.29 mmol/g): 98 mg; isolated yield (scale 315 mg, 0.29 mmol/g): 34%

**Q.** With “PEPTIDE1{V.D.K.[dP].P.Y.L.P.R.P.R.P.P.R.R.I.Y.N.R.[am]}$$$$V2.0” as the substance, how does the isolated mass (scale 310 mg, 0.29 mmol/g) read?
**A.** The isolated mass was 120 mg.

**Q.** And the isolated yield (scale 310 mg, 0.29 mmol/g)?
**A.** The isolated yield was 42%.

**Q.** With “PEPTIDE1{V.D.K.[dP].[dP].Y.L.P.R.P.R.P.P.R.R.I.Y.N.R.[am]}$$$$V2.0” as the substance, how does the isolated mass (scale 335 mg, 0.29 mmol/g) read?
**A.** The isolated mass was 104 mg.

**Q.** What about the isolated yield (scale 335 mg, 0.29 mmol/g) of the same substance?
**A.** Its isolated yield is 34%.

**Q.** With “PEPTIDE1{[dV].[dD].[dK].[dP].[dP].[dY].[dL].[dP].[dR].[dP].[dR].[dP].[dP].[dR].[dR].[dI].[dY].[dN].[dR].[am]}$$$$V2.0” as the substance, how does the isolated mass (scale 348 mg, 0.29 mmol/g) read?
**A.** The isolated mass was 96 mg.

**Q.** And the isolated yield (scale 348 mg, 0.29 mmol/g)?
**A.** The isolated yield was 30%.

**Q.** Which results are given for VDKPPYLPRPRPPROIYNO?
**A.** isolated mass (scale 305 mg, 0.29 mmol/g): 109 mg; isolated yield (scale 305 mg, 0.29 mmol/g): 40%
